About 610 (0.16%) of roughly 390,000 compounds were called active. The shares of active, inactive and inconclusive entries below differ from those in the screen. Calls come from the whole dose curve; as a rule, active = well fitted inhibition curve with a large enough effect; inconclusive = small, poorly fitted or top-dose-only effect, or effect the other way, or another doubt; inactive = no such curve, though single readings can be large or run the other way. Where the call is inconclusive, the potency comes from a doubtful curve fit.
Experiment: Nrf2 qHTS screen for inhibitors: counterscreen for cytotoxicity
Conditions: A549 ARE-Fluc cells, CellTiter-Fluor viability, 18-24 h; activity change, negative = cytotoxicity: at 46 µM (top of the series)
In short: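 Cytotoxicity counterscreen: CellTiter-Fluor fluorescence was measured in A549 ARE_Fluc cells after 18-24 h of compound exposure in a concentration series. The subsequent BugLite luminescent read reports ARE-luciferase activity.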
% is set by controls: 0 for no effect and ±100 for the full control effect; potency is the fitted concentration of half-maximal effect.

Row | Structure (SMILES) | activity change, negative = cytotoxicity | Potency
1 | O=C1c2ccccc2NC(c2ccccc2O)N1Cc1ccccc1 (stereo unspecified) | inactive: -1.3% | –
2 | COc1ccccc1/C=C/C(=O)Nc1cccc(S(=O)(=O)N2CCOCC2)c1 | inactive: -10.5% | –
3 | Brc1ccc(-c2c(-c3ccsc3)sc3ccccc23)cn1 | – | inconclusive: 3.26 µM [activator, partial curve, poor fit]
4 | S=C(NN=C(c1ccccc1)c1ccccn1)N(Cc1ccccn1)Cc1ccccn1 | – | active: 11.6 µM
5 | Fc1ccc(-c2cnc(-c3cccs3)o2)cc1 | inactive: -13.9% | –
6 | O=C(NC1CCCCC1)C(c1ccccc1)N(Cc1ccc2c(c1)OCO2)C(=O)c1cnsn1 (stereo unspecified) | – | inconclusive: 29.1 µM [falling, partial curve, poor fit]
7 | CN1CCc2c(OCC(=O)N3CCCc4ccccc43)cccc2C1=O | – | inconclusive: 32.6 µM [falling, partial curve, poor fit]
8 | O=C(NC1CCCCC1)C(c1ccco1)N(Cc1cccs1)C(=O)Cn1nnc2ccccc21 (stereo unspecified) | inactive: -12.8% | –
9 | Cc1ccc(S(=O)(=O)N(C)C[C@H]2Oc3c(NC(=O)Nc4cccc5ccccc45)cccc3C(=O)N([C@@H](C)CO)C[C@@H]2C)cc1 | inactive: -13.3% | –
10 | O=C(c1ccc([N+](=O)[O-])cc1)N1CCN(c2cccc3[nH]ccc23)CC1 | – | inconclusive: 29.1 µM [activator, partial curve, poor fit]
11 | c1ccc(-c2nc(-c3cccs3)[nH]c2-c2ccccc2)cc1 | inactive: -8.71% | –
12 | CSc1nccc(-c2c(-c3ccc(Cl)cc3)noc2C)n1 | inactive: 17.9% | –
13 | COc1cc(O)c(CC=C(C)C)c(O)c1C(=O)CCc1ccc(O)cc1 | – | inconclusive: 16.4 µM [falling, partial curve, poor fit]
14 | CCN(CC)c1cc(C)c2cc(NC(=O)c3cccs3)ccc2n1 | – | inconclusive: 29.1 µM [falling, single point]
15 | COc1ccc(C(Nc2ccccn2)c2c(NC(=O)c3ccco3)sc(C)c2C)cc1OC (stereo unspecified) | – | inconclusive: 5.8 µM [activator, partial curve, poor fit]
16 | COC(=O)c1sccc1NC(=O)c1ccc(C)cc1 | inactive: 8.54% | –
17 | Clc1ccc(Nc2nc(NCCN3CCOCC3)nc(N3CCOCC3)n2)cc1 | – | inconclusive: 0.517 µM [activator, full curve, poor fit]
18 | O=C(Oc1c(Cl)cc(Cl)c2cccnc12)c1ccco1 | – | inconclusive: 23.1 µM [falling, partial curve]
19 | COCCNC(=S)N(CCc1c(C)[nH]c2ccc(F)cc12)Cc1ccc(C)cc1 | – | inconclusive: 29.1 µM [falling, partial curve, poor fit]
20 | Fc1ccc(NC(=S)Nc2nccs2)cc1 | – | inconclusive: 29.1 µM [falling, partial curve, poor fit]
21 | C/C(CC1CC2=C(CC1(C)C)C(C)(C)CCC2)=N\NC(N)=S (stereo unspecified) | – | inconclusive: 29.1 µM [falling, single point]
22 | Cc1cc(C(F)(F)F)c(C#N)c(SCC(=O)Nc2nc3cc(Br)ccc3s2)n1 | – | inconclusive: 29.1 µM [falling, single point]

Row | Structure (SMILES) | activity change, negative = cytotoxicity | Potency
23 | CO[C@H]1/C=C/O[C@@]2(C)Oc3c(C)c(O)c4c(O)c(c(C=NN5CCN(C)CC5)c(O)c4c3C2=O)NC(=O)/C(C)=C\C=C\[C@H](C)[C@H](O)[C@@H](C)[C@@H](O)[C@@H](C)[C@H](OC(C)=O)[C@@H]1C | – | inconclusive: 10.3 µM [falling, partial curve]
24 | CCOc1ccc(NS(=O)(=O)c2ccc(NC(=S)NC(=O)CC(C)C)cc2)cc1 | – | inconclusive: 5.8 µM [falling, partial curve]
25 | CCOC(=O)CCC(=O)Nc1nnc2n1CCS2 | inactive: 3.5% | –
26 | COc1cccc(C(=O)Nc2ccc(C(=O)c3ccccc3)cc2)c1 | inactive: -7.45% | –
27 | CCCCS(=O)(=O)c1oc(-c2cccs2)nc1S(=O)(=O)c1ccc(F)cc1 | – | inconclusive: 29.1 µM [falling, single point]
28 | Cn1c(C(=O)NCC2CCCO2)cc2c(=O)n3ccccc3nc21 (stereo unspecified) | – | inconclusive: 20.6 µM [activator, partial curve, poor fit]
29 | CCCc1[nH]c2ccc(C#N)cc2c1CCC | – | inconclusive: 23.1 µM [falling, partial curve, poor fit]
30 | Cc1c(N2C(=O)c3ccc4c5c(ccc(c35)C2=O)CC4)c(=O)n(-c2ccccc2)n1C | – | inconclusive: 23.1 µM [falling, partial curve, poor fit]
31 | O=c1c(Br)c(Br)cnn1-c1ccccc1 | – | inconclusive: 29.1 µM [falling, partial curve, poor fit]
32 | CC(=O)N1CCN(c2ccccc2NC(=O)c2cc(Br)ccc2Cl)CC1 | – | inconclusive: 20.6 µM [activator, single point]
33 | OCC[n+]1ccc(/C=C/c2c[nH]c3ccccc23)cc1 | – | inconclusive: 10.3 µM [falling, partial curve]
34 | CC1Cc2ccccc2N1S(=O)(=O)c1cccc(C(=O)N2CCN(c3ncccn3)CC2)c1 (stereo unspecified) | – | inconclusive: 29.1 µM [falling, single point]
35 | N/C(Cc1ccc([N+](=O)[O-])cc1)=N\OC(=O)C(c1ccccc1)c1ccccc1 | – | inconclusive: 29.1 µM [falling, single point]
36 | COCCNc1nc(N)c([N+](=O)[O-])c(NC2CCCCC2)n1 | inactive: 4.6% | –
37 | CC(C)(C)C(=O)CN1C(=O)NC(C)(Cc2ccc3c(c2)OCO3)C1=O (stereo unspecified) | – | inconclusive: 0.103 µM [activator, full curve, poor fit]
38 | COC(=O)c1c(NC(=O)C(=O)NCCCN2CCOCC2)sc2c1CCCC2 | – | inconclusive: 14.6 µM [falling, partial curve, poor fit]
39 | COc1ccc(-c2nc(CS(=O)(=O)CC(=O)NCCCN3CCN(C)CC3)c(C)o2)cc1 | – | inconclusive: 6.51 µM [falling, single point]
40 | Cc1ccc(-c2nnc(Nc3ccc(C(N)=O)cc3)c3ccccc23)cc1S(N)(=O)=O | inactive: -11.5% | –
41 | O=C(N[C@@H](Cc1ccccc1)C(=O)N1CCC2(CC1)NCCc1[nH]cnc12)c1cccc(F)c1 | – | inconclusive: 9.2 µM [falling, partial curve]
42 | CCOc1ccc(-n2c(SCC(=O)Nc3ccc(OC)cc3OC)nc3c(c2=O)SCC3)cc1 | – | inconclusive: 20.6 µM [falling, partial curve, poor fit]
43 | Cc1cc(C)cc(NC(=O)CN2CCCN(S(=O)(=O)c3ccc(Br)s3)CC2)c1 | – | inconclusive: 18.4 µM [falling, single point]
44 | CCOC(=O)c1c(C)[nH]c(C(=O)CSc2nnnn2-c2ccc(C)cc2)c1C | – | inconclusive: 20.6 µM [falling, partial curve]

Single records, as listed above. Values in the order: activity change, negative = cytotoxicity	Potency
CCCCS(=O)(=O)c1oc(-c2cccs2)nc1S(=O)(=O)c1ccc(F)cc1 as listed: –	inconclusive: 29.1 µM [falling, single point]
O=c1c(Br)c(Br)cnn1-c1ccccc1 as listed: –	inconclusive: 29.1 µM [falling, partial curve, poor fit]
Cc1cc(C)cc(NC(=O)CN2CCCN(S(=O)(=O)c3ccc(Br)s3)CC2)c1 as listed: –	inconclusive: 18.4 µM [falling, single point]
COCCNc1nc(N)c([N+](=O)[O-])c(NC2CCCCC2)n1 as listed: inactive: 4.6%	–

Additional results.

Row | Structure (SMILES) | activity change, negative = cytotoxicity | Potency
45 | O=C(Nc1cccc(C(=O)O)c1)/C(=C\C=C\c1ccccc1)NC(=O)c1ccccc1 | – | inconclusive: 4.11 µM [falling, partial curve, poor fit]
46 | Cc1cccc2sc(NNC(=O)c3cc(-c4cccs4)nc4ccccc34)nc12 | – | inconclusive: 29.1 µM [falling, single point]
47 | CCS(=O)(=O)N1CCc2cc(C(=O)Nc3cccc(C)c3C)ccc21 | – | inconclusive: 32.6 µM [falling, partial curve, poor fit]
48 | COc1cccc(/C=C2/CN(C)CC3=C2OC(N)=C(C#N)C3c2cccc(OC)c2)c1 (stereo unspecified) | – | inconclusive: 16.4 µM [falling, partial curve, poor fit]
49 | COc1ccccc1NC(=O)c1sc(Cl)nc1C | inactive: -3.03% | –
50 | CSc1ncccc1C(=O)NC1CCN(Cc2ccccc2)CC1 | inactive: -6.91% | –
51 | CCCCN(C)C(=O)C1CCN(Cc2ccc(OCc3ccccc3)cc2)CC1 | – | inconclusive: 23.1 µM [falling, single point]
52 | c1ccc(-c2nc3c4ccccc4ccn3c2CN2CCOCC2)cc1 | – | inconclusive: 1.16 µM [activator, full curve]
53 | Cc1cccc(C)c1NC(=S)Nc1ccccc1C(=O)NCc1ccco1 | – | inconclusive: 16.4 µM [falling, single point]
54 | O=C(O)CSc1c(-c2ccccc2)c2cc(Cl)ccc2[nH]c1=O | inactive: 9.64% | –
55 | O=C1NC(=S)S/C1=C/c1ccc(N2CCOCC2)o1 | – | active: 20.6 µM
56 | NC(=O)c1ccsc1NC(=O)COC(=O)CSc1ccc(Cl)cc1 | inactive: 8.83% | –
57 | Cc1[nH]cnc1CSCCN | – | inconclusive: 8.2 µM [falling, partial curve, poor fit]
58 | Cc1ccc(C(=O)NCC(=O)OCC(=O)c2ccc3c(c2)NC(=O)CO3)cc1C | inactive: 7.11% | –
59 | COc1ccccc1-c1nc(COc2ccc(Cl)cc2Cl)no1 | inactive: 4.73% | –
60 | CSc1ncc2c(n1)-c1ccccc1N(Cc1ccc(F)cc1)S2(=O)=O | – | inconclusive: 32.6 µM [activator, partial curve, poor fit]
61 | COC(=O)c1sccc1NC(=O)CSc1cc(Cl)ccc1Cl | – | inconclusive: 16.4 µM [activator, partial curve, poor fit]
62 | CN(C)CCCn1c(SCC(=O)N2c3ccccc3Sc3ccccc32)nc2ccccc2c1=O | inactive: -1.74% | –
63 | COc1cc2ncc(S(=O)(=O)c3ccccc3)c(N3CCCC(C)C3)c2cc1OC (stereo unspecified) | – | inconclusive: 23.1 µM [falling, single point]
64 | CC(=O)c1c(C)[nH]c(C(=O)OCC(=O)N(Cc2ccccc2)C(C)(C)C)c1C | – | inconclusive: 25.9 µM [activator, single point]
65 | Cc1ccc(C(=O)Nc2ccc3c(c2)N(C)C(=O)c2ccccc2S3)cc1 | – | inconclusive: 16.4 µM [falling, single point]
66 | COc1ccc2cc(C(C)C(=O)N3CCC(C(N)=O)CC3)ccc2c1 (stereo unspecified) | inactive: 2.07% | –
